Counter-ions that a name gives are not always drawn. The list shows a part of the results. Baselines shift from plate to plate; read single values as rough.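 The strain is a K-12 laboratory model grown without shaking in 96-well plates, and biofilm is the crystal violet stain retained on the wells, read as absorbance. Drugs were picked as candidate specific biofilm blockers when they cut staining strongly but slowed free-floating growth by less than 70%.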

This test concerns Escherichia coli W3110. As to the kind of experiment: biofilm formation (crystal violet staining) relative to untreated control; higher = more biofilm. Particulars: 10 µM; 20-24 h; 30 °C; TB.
In turn, `Cc1scc2c1N(C(=O)CN1CCN(C)CC1)c1ccccc1NC2=O` [Telenzepine dihydrochloride] returned a biofilm formation of 73%.
For `Cn1c(=O)c2nc[nH]c2n(C)c1=O` [Theophylline monohydrate], the biofilm formation came out at 81%.
For `c1ccc(C2CN3CCSC3=N2)cc1` (stereo not drawn) [Tetramisole hydrochloride] the value was 73%.
For the compound `C=C1c2cccc(O)c2C(=O)C2=C(O)[C@]3(O)C(=O)C(C(N)=O)=C(O)[C@@H](N(C)C)[C@@H]3[C@@H](O)[C@H]12` [Methacycline hydrochloride], the biofilm formation worked out at 20%.
For the compound `CCOC(=O)c1ccc(OC(=O)CCCCCNC(=N)N)cc1` [Gabexate mesilate], the biofilm formation came to 71%.
`CCCN[C@H]1CCc2nc(N)sc2C1` [Pramipexole dihydrochloride]: the biofilm formation came out at 62%.
Take `Cc1cc(=O)oc2cc(O)ccc12` [Hymecromone]: the biofilm formation is 59%.
The compound `CC(COc1ccccc1)N(CCCl)Cc1ccccc1` (stereo not drawn) [Phenoxybenzamine hydrochloride] gave a biofilm formation of 53%.
For the compound `CCCNC(C)C(=O)Nc1ccccc1C` (stereo not drawn) [Prilocaine hydrochloride], the biofilm formation was determined as 76%.
For `COc1ccc(CN(CCN(C)C)c2ccccn2)cc1` [Pyrilamine maleate] the value was 63%; for `CC(=O)c1ccc(S(=O)(=O)NC(=O)NC2CCCCC2)cc1` [Acetohexamide], 66%.
Turning to `CCCCC[C@H](O)/C=C/[C@@H]1[C@@H](C/C=C\CCCC(=O)O)[C@@H](O)C[C@H]1O` [Dinoprost trometamol], the biofilm formation is 96%.
On to `Clc1ccc(C(Cn2ccnc2)OCc2c(Cl)cccc2Cl)c(Cl)c1` (stereo not drawn) [Isoconazole], for which the biofilm formation was found to be 41%.
As for `NC(=O)N1c2ccccc2C=Cc2ccccc21` [Carbamazepine], the biofilm formation was found to be 89%.
Turning to `CN(C)CCN(Cc1cccs1)c1ccccn1` [Methapyrilene hydrochloride], the biofilm formation worked out at 53%.
For `COc1c(O[C@@H]2O[C@H](CO)[C@@H](O)[C@H](O)[C@H]2O)cc2c(c1OC)-c1ccc(SC)c(=O)cc1[C@@H](NC(C)=O)CC2` [Thiocolchicoside], the biofilm formation was determined as 62%.
For `O=C(Cn1ccnc1[N+](=O)[O-])NCCO` [Etanidazole] the value was 72%; for `O=C1CN2Cc3c(ccc(Cl)c3Cl)N=C2N1` [Anagrelide], 63%; for `CC(C)NCC(O)COc1ccc(COCCOC(C)C)cc1` (stereo not drawn) [Bisoprolol fumarate], 83%.
In turn, `Nc1nc(=S)c2ncn([C@@H]3O[C@H](CO)[C@@H](O)[C@H]3O)c2[nH]1` [Thioguanosine] gave a biofilm formation of 56%.
Take `CC(C)C(=O)OCC(=O)[C@@]12O[C@H](C3CCCCC3)O[C@@H]1C[C@H]1[C@@H]3CCC4=CC(=O)C=C[C@]4(C)[C@H]3[C@@H](O)C[C@@]12C` [Ciclesonide]: the biofilm formation was 59%.
In turn, `Nc1nc(=O)c2nc(CNc3ccc(C(=O)N[C@@H](CCC(=O)O)C(=O)O)cc3)cnc2[nH]1` [Folic acid] came in with a biofilm formation of 72%.
Regarding `CC(=O)N[C@@H](CC(C)C)C(=O)O` [N-Acetyl-L-leucine], the biofilm formation came to 54%.
`Nc1nc(F)nc2c1ncn2[C@@H]1O[C@H](CO)[C@@H](O)[C@@H]1O` [Fludarabine] gave a biofilm formation of 52%.
On to `CC[C@H]1OC(=O)[C@H](C)[C@@H](O[C@H]2C[C@@](C)(OC)[C@@H](O)[C@H](C)O2)[C@H](C)[C@@H](O[C@@H]2O[C@H](C)C[C@H](N(C)C)[C@H]2O)[C@](C)(O)C[C@@H](C)/C(=N\OCOCCOC)[C@H](C)[C@@H](O)[C@]1(C)O` [Roxithromycin], for which the biofilm formation came out at 61%.
On to `NC[C@H]1O[C@H](O[C@H]2[C@H](O[C@@H]3O[C@H](CO)[C@@H](O)[C@H]3O)[C@@H](O)[C@H](N)C[C@@H]2N)[C@H](N)[C@@H](O)[C@@H]1O` [Ribostamycin sulfate salt], for which the biofilm formation came to 46%.
`Cc1ccc(C(=O)c2cc(O)c(O)c([N+](=O)[O-])c2)cc1` [Tolcapone] displayed a biofilm formation of 45%.
For `COc1ccc2[nH]cc(CCNC(C)=O)c2c1` [Melatonin] the value was 90%.
For `COc1ccc(C(=O)NCc2cccnc2)cc1C(=O)NCc1cccnc1` [Picotamide monohydrate] the value was 62%; for `O=C(NCCNCC(O)COc1ccc(O)cc1)N1CCOCC1` (stereo not drawn) [Xamoterol hemifumarate], 54%; for `CN(C)CCOC1=Cc2ccccc2Sc2ccc(Cl)cc21` [Zotepine], 79%.
For `CCN(Cc1ccncc1)C(=O)C(CO)c1ccccc1` (stereo not drawn) [Tropicamide], the biofilm formation was 76%.
The compound `Cc1ncc([N+](=O)[O-])n1CCO` [Metronidazole] gave a biofilm formation of 76%.
For `CCN(CC)CC#CCOC(=O)C(O)(c1ccccc1)C1CCCCC1` (stereo not drawn) [Oxybutynin chloride], the biofilm formation was determined as 50%.
Compound `OC(CCN1CCCCC1)(c1ccccc1)C1CC2C=CC1C2` (stereo not drawn) [Biperiden hydrochloride] yielded a biofilm formation of 62%.
For `CN1C2CCCC1CC(NC(=O)c1nn(C)c3ccccc13)C2` (stereo not drawn) [Granisetron] the value was 56%; for `CC(C)N1CCN(c2ccc(OCC3COC(Cn4cncn4)(c4ccc(Cl)cc4Cl)O3)cc2)CC1` (stereo not drawn) [Terconazole], 76%; for `CCN(CC)CCNC(=O)c1cc(S(C)(=O)=O)ccc1OC` [Tiapride hydrochloride], 64%.
The compound `O=C(CCCN1CC=C(n2c(=O)[nH]c3ccccc32)CC1)c1ccc(F)cc1` [Droperidol] gave a biofilm formation of 86%.
Compound `C#CCN(C)Cc1ccccc1` [Pargyline hydrochloride] registered a biofilm formation of 63%.
For `COc1ccc2cc(CCC(C)=O)ccc2c1` [Nabumetone] the value was 62%.
In turn, `CCn1cc(C(=O)O)c(=O)c2ccc(C)nc21` [Nalidixic acid sodium salt] yielded a biofilm formation of 63%.
With `Cc1ccc(S(=O)(=O)NC(=O)NN2CC3CCCC3C2)cc1` (stereo not drawn) [Gliclazide], the biofilm formation worked out at 104%.
`CCCCS(=O)(=O)N[C@@H](Cc1ccc(OCCCCC2CCNCC2)cc1)C(=O)O` [Tirofiban hydrochloride] registered a biofilm formation of 72%.
Consider `COc1cc2nc(N3CCN(C(=O)c4ccco4)CC3)nc(N)c2cc1OC` [Prazosin hydrochloride], for which the biofilm formation worked out at 53%.
For `CCn1cc(C(=O)O)c(=O)c2cnc(N3CCNCC3)nc21` [Pipemidic acid], the biofilm formation turned out to be 9%.
In turn, `COc1nc(C)nc(Cl)c1NC1=NCCN1` [Moxonidine] returned a biofilm formation of 72%.
`CC(=O)Oc1cccc2c1C(=O)c1c(OC(C)=O)cc(C(=O)O)cc1C2=O` [Diacerein] showed a biofilm formation of 60%.

The values above are taken from the supplement of paper PMC7580552.
